The experiment concerns the target S. pombe tropomyosin Cdc8 (S. pombe (endogenous in S. pombe cells)) (UniProt Q02088). Description: live-cell fluorescence imaging of the expressed nanobody-mNG fusion; Nb5–mNG expressed in S. pombe cells and imaged by spinning disk confocal microscopy at 25°C; Cdc8-containing patches, cables, CAR and fusion focus were decorated.

Sequences of proteins named here, by UniProt entry; tags and fusion partners are left off.
UniProt Q02088: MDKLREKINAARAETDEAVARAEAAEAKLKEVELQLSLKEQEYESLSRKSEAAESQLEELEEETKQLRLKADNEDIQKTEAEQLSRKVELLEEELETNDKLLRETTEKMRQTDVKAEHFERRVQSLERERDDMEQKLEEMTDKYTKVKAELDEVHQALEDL

Results are given in words; binding and its absence hold for the method and conditions named. Some entries that bind do so weakly or less than the wild type. Where a sequence is shown, tags or fusion partners need not be part of it.

B1: Nanobody 5 fused to mNG (Nb5–mNG) (VHH)
VHH: EVQLQASGGGFVQPGGSLRLSCAASGRTYEQSAMGWFRQAPGKEREFVSAISRNSGQWQYYADSVKGRFTISRDNSKNTVYLQMNSLRAEDTATYYCARAFDVLIKGATYSREYWGQGTQVTVSS
Take B1: the binding result is listed as “binds”.

The values above are taken from paper PMC9592052.
